From PMC7083940

Sequences of proteins named here, by UniProt entry; tags and fusion partners are left off. A change or cut given only in a name is not applied to a line headed by its entry.
UniProt Q8NQK9: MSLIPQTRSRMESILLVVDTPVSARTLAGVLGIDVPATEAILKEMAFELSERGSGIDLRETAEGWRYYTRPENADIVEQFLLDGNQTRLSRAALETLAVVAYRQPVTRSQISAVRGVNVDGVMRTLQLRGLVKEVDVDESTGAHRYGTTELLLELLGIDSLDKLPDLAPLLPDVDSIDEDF
UniProt Q8NQL2: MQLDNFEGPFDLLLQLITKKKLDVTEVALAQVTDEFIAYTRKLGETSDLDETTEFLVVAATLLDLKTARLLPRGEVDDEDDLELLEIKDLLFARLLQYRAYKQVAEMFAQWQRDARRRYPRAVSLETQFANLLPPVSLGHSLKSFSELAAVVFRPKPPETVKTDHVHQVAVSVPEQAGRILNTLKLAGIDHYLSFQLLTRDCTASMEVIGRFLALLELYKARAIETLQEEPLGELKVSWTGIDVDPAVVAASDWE

Target: T1, SMC-mCherry (Corynebacterium glutamicum) (UniProt Q8NNW5)
T1 sequence: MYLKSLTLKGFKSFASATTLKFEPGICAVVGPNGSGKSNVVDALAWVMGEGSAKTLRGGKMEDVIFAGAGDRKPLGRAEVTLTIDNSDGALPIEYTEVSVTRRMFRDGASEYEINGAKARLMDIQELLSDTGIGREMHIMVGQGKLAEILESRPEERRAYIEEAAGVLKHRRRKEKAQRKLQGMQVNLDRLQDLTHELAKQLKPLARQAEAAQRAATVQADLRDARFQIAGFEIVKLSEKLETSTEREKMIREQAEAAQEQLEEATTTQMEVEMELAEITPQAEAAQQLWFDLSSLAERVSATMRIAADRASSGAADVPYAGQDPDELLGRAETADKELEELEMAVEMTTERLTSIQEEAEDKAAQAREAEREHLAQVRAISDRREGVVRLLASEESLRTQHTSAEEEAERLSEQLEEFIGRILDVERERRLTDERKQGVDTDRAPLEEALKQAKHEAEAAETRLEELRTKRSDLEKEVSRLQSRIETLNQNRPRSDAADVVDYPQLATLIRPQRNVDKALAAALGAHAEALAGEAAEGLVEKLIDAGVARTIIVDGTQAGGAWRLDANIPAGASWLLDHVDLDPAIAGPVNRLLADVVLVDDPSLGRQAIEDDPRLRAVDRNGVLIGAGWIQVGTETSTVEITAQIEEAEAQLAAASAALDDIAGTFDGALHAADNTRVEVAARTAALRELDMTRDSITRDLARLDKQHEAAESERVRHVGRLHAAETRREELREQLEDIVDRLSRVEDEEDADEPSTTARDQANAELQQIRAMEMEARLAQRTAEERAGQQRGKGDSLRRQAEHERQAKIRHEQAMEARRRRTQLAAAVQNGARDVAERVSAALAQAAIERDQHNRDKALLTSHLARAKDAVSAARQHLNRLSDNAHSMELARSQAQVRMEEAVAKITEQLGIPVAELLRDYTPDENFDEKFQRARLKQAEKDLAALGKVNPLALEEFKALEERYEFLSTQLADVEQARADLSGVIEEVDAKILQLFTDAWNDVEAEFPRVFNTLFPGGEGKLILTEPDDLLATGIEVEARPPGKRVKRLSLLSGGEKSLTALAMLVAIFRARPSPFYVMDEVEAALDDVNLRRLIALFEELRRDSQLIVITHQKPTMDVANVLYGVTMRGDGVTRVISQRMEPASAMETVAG
Assay: affinity purification with mass spectrometry; anti-mCherry pulldown with magnetic RFP-Trap agarose beads, 1 h in lysate of exponentially grown C. glutamicum, 4 °C, washing buffer 10 mM Tris-HCl pH 7.5, 150 mM NaCl, 0.5 mM EDTA; LC-MS/MS; free mCherry strain CBK052 as negative control

binding | Substance
no binding | ParB, endogenous
binds | ScpB, endogenous (from UniProt Q8NQK9)
binds | ScpA (kleisin subunit), endogenous (from UniProt Q8NQL2)

No constants are given. Whether binding was seen depends on the method and setting. In cells and extracts the contact can be indirect. Here binding means that the protein was enriched with, or labelled near, the bait; the list need not be complete. No binding means not detected with the bait.
